The nature of the data set: MTT cytotoxicity assay. Particulars: mouse, BALB/c3T3 mouse embryonic fibroblast cells. On the technique in general: Tetrazolium assays rely on reduction of a dye to a coloured formazan, in cell work by metabolically active cells.

The term viability denotes a read-out of living cells in per cent, often relative to untreated cells. High values mean less harm to the cells, low ones more harm to the cells.

`O=C(O)c1cn(C2CC2)c2cc(N3CCNCC3)c(F)cc2c1=O` [ciprofloxacin, reference compound] had a viability of 85 to 89.9%.
